Test results as given in publication PMC11273936 (Antibiotics, 2024).

Assay: general procedure: Fmoc solid-phase peptide synthesis in flow; TentaGel-S-NH2 ([…]) with HMPA linker (1, 3-6) or Rink amide linker (7-11); HATU/DIPEA; PyAOP/sym-collidine for Cys
Settings: for step yield: purification step, based on crude yield; for isolated yield: overall
[1] = whole synthesis, analytical RP-HPLC, scale of the general procedure ca. 0.15 mmol

| Substance | step yield [%] | isolated mass (whole synthesis) [mg] | final HPLC purity (whole synthesis, 214 nm, scale of the general procedure ca. 0.15 mmol) [%] | crude HPLC purity [1] | crude yield (whole synthesis, based on initial resin loading, scale of the general procedure ca. 0.15 mmol) [%] | isolated yield (whole synthesis, accounting for resin splitting, scale of the general procedure ca. 0.15 mmol) [%] | crude mass (whole synthesis, scale 0.05 mmol) [mg] | crude HPLC purity (cyclisation step, analytical RP-HPLC) | final HPLC purity [1] [%] | final purity (method not given) [1] [%] | isolated yield (whole synthesis, scale of the general procedure ca. 0.15 mmol) [%] |
| --- | --- | --- | --- | --- | --- | --- | --- | --- | --- | --- | --- |
| Capitellacin | 26 | 11.7 | > 97 | ca. 60% | 38 | 10 | 45 | – | – | – | – |
| Vinyl Sulphide Analogue, 'Lys18-D-Cys5' | 11.6 | 8.0 | – | – | – | – | – | approximately 60% | > 96 | 96 | 2.2 |
